From article PMC5807360 come the findings set out here.

These are yes or no findings as the source states them, for the method shown. In cells and extracts the contact can be indirect. For some assays here: A result given as binding can be weak or reduced; the word gives no strength. Tags and fused reporters may be left off the sequences shown.

Assay [1] has as its target T1, RLP23-GFP (Arabidopsis RLP23, GFP-tagged) (Arabidopsis thaliana) (UniProt O48849).
T1 sequence: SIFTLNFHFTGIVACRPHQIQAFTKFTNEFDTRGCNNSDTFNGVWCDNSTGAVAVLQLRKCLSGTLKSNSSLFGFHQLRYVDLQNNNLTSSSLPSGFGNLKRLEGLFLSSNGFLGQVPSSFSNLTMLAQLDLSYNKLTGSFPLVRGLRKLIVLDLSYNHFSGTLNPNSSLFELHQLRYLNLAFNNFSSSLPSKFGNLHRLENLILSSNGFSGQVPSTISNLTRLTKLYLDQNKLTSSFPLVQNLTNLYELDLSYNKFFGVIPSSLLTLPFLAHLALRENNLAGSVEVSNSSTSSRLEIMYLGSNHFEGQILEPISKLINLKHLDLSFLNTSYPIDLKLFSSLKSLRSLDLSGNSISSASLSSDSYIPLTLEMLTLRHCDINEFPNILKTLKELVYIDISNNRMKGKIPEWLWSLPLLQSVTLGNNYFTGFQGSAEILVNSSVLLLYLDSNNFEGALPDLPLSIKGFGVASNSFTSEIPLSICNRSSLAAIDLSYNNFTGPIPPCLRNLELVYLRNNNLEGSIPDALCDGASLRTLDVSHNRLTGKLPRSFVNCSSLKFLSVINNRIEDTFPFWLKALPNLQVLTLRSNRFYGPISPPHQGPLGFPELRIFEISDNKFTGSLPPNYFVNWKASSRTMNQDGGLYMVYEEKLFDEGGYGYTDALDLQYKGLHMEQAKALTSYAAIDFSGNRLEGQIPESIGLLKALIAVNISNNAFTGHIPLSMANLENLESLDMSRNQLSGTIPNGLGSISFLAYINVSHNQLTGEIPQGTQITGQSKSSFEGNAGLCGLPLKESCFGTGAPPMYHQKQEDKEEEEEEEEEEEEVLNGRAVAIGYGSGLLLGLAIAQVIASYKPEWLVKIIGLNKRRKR
Nature of the assay: co-IP; Arabidopsis RLP23 with BAK1 in mock-treated N. benthamiana leaves, without nlp20 (Supplementary Fig. 11a).

For assay [2], the target named is T1, RLP23-GFP (Arabidopsis RLP23, GFP-tagged) (Arabidopsis thaliana). Nature of the assay: co-IP; Arabidopsis RLP23 with BAK1 and SOBIR1 in N. benthamiana leaves; treatment with the ligand nlp20 (PpNLP) or mock (Supplementary Fig. 11a).
Assay [3] has as its target RXEGL1^SP+LRR-GFP (signal peptide + LRR domain of RXEGL1, GFP-tagged) (Nicotiana benthamiana). Description: co-IP; proteins co-expressed in N. benthamiana leaves, isolated at 2 dai; total protein extract (150-200 mM NaCl, 50 mM Tris-HCl pH 7.5, 10 mM EDTA, 1.0% NP-40); GFP-trap A beads, 4 °C, 2 h; blots with anti-GFP and anti-HA.
Assay [4] addresses RXEG1^SP+LRR-GFP (signal peptide + LRR domain of RXEG1, GFP-tagged) (Nicotiana benthamiana). The assay is described as above.
The target in assay [5] is RLP23^SP+LRR-GFP (signal peptide + LRR domain of Arabidopsis RLP23, GFP-tagged) (Arabidopsis thaliana). The assay is described as above.
Assay [6] addresses RXEGL1^SP+LRR-GFP (signal peptide + LRR domain of RXEGL1, GFP-tagged) (Nicotiana benthamiana). Description: co-IP; apoplastic fluid collected 2 dai from N. benthamiana leaves co-expressing XEG1 with GFP-tagged SP+LRR proteins; immunoprecipitation and western blotting. For orientation: A western blot detects proteins with antibodies after separation by electrophoresis.
For assay [7], the target named is RXEG1^SP+LRR-GFP (signal peptide + LRR domain of RXEG1, GFP-tagged) (Nicotiana benthamiana). The assay is described as above.
Assay [8] deals with RLP23^SP+LRR-GFP (signal peptide + LRR domain of Arabidopsis RLP23, GFP-tagged) (Arabidopsis thaliana). Described as above.

As to “BAK1-RFP (Nicotiana benthamiana) (receptor)”, the binding result was “binds weakly” in assay [1] and “binds” in assay [2].

B1: XEG1-HA (Phytophthora sojae glycoside hydrolase 12 protein XEG1, C-terminal HA tag) (protein, UniProt G4ZHR2 20-241)
chain: GDYCGQWDWAKSTNYIVYNNLWNKNAAASGSQCTGVDKISGSTIAWHTSYTWTGGAATEVKSYSNAALVFSKKQIKNIKSIPTKMKYSYSHSSGTFVADVSYDLFTSSTASGSNEYEIMIWLAAYGGAGPISSTGKAIATVTIGSNSFKLYKGPNGSTTVFSFVATKTITNFSADLQKFLSYLTKNQGLPSSQYLITLEAGTEPFVGTNAKMTVSSFSAAVN
As to B1, the binding entry in assay [3] is “no binding”; in assay [4], “binds”; in assay [5], “no binding”; in assay [6], “no binding”; in assay [7], “binds”; in assay [8], “no binding”.
